Test [1] deals with CAMSAP1 (UniProt Q5T5Y3). The test can be described thus: co-IP + SEC-MALS. Background: SEC sorts molecules by how far they enter the pores of the column.
For test [2], the target named is CAMSAP3 944F (UniProt Q80VC9). The test can be described thus: co-IP.
In test [3] the target is CAMSAP3 944F LL2AA (UniProt Q80VC9). The test can be described thus: co-IP.
For test [4], the target named is CAMSAP2 (UniProt Q08AD1). The test can be described thus: co-IP + SEC-MALS.

Protein sequences, listed by entry. Tags and fused reporters are not part of them.
UniProt Q5T5Y3: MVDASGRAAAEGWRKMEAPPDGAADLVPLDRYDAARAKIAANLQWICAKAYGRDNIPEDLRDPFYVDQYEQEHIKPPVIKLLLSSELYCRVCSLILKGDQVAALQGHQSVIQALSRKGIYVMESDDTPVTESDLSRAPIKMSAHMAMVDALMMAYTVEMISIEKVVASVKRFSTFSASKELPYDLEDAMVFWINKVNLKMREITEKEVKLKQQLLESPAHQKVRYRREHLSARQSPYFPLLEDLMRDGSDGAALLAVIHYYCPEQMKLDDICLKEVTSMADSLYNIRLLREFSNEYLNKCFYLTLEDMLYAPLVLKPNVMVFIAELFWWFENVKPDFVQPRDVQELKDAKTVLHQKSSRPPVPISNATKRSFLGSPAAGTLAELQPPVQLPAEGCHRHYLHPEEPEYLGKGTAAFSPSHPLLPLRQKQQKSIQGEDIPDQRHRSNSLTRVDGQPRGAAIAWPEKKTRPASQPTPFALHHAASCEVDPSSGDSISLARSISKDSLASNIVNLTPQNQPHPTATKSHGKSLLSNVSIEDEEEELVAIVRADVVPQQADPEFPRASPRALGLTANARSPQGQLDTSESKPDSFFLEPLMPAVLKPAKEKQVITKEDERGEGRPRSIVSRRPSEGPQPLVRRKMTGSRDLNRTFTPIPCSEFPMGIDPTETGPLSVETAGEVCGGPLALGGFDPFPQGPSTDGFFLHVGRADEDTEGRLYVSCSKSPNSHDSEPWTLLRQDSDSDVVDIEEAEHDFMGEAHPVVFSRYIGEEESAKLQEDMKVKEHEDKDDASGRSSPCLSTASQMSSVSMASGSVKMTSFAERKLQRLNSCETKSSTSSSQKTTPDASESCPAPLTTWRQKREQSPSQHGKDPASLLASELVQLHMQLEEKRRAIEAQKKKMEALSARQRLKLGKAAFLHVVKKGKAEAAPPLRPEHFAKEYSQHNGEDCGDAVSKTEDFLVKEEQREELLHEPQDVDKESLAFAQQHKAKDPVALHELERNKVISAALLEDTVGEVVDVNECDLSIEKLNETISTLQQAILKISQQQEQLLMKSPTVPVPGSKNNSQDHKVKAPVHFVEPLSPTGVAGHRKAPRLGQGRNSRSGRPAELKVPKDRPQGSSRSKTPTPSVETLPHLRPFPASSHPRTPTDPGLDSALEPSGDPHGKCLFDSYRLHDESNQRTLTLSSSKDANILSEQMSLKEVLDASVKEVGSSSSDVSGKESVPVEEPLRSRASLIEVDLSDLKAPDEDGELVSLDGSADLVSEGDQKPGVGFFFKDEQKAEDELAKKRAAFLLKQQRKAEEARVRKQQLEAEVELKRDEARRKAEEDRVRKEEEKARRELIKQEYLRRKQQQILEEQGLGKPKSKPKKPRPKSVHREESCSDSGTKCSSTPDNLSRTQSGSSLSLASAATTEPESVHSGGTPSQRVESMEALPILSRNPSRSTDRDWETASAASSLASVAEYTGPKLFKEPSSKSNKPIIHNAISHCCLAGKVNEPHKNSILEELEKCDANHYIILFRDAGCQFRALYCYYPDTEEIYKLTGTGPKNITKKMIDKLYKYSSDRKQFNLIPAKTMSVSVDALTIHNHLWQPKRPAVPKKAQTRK

These are yes or no findings as the source states them, for the method shown. Binding seen in cells or lysates may run through a third protein. Some binding calls cover weakened binding; strength is not graded here.

In the case of CAMSAP1 (from UniProt Q5T5Y3 1-1602), the binding entry in test [1] was “binds”.

B1: CAMSAP3 944F (domain or fragment, UniProt Q80VC9 944-1252)
chain: AFTTPVVASAAPVATLAPTTRAMAPAEEEVGPRRGDFTRLEYERRAQLKLMDDLDKVLRPRASGTGGPGRGGRRATRPRSGCCDDSALARSPARGLLGSRLSKVYSQSTLSLSTVANEAPNNLGVKRPTSRAPSPSGLMSPSRLPGSRERDWENGSNASSPASVPEYTGPRLYKEPSAKSNKFIIHNALSHCCLAGKVNEPQKNRILEEIEKSKANHFLILFRDSSCQFRALYTLSGETEELSRLAGYGPRTVTPAMVEGIYKYNSDRKRFTQIPAKTMSMSVDAFTIQGHLWQSKKPTTPKKGGGTPK
As for B1, in test [2], the binding result was “binds”.

B2: CAMSAP3 944F LL2AA (domain or fragment, UniProt Q80VC9 944-1252)
chain: AFTTPVVASAAPVATLAPTTRAMAPAEEEVGPRRGDFTRLEYERRAQLKAMDDADKVLRPRASGTGGPGRGGRRATRPRSGCCDDSALARSPARGLLGSRLSKVYSQSTLSLSTVANEAPNNLGVKRPTSRAPSPSGLMSPSRLPGSRERDWENGSNASSPASVPEYTGPRLYKEPSAKSNKFIIHNALSHCCLAGKVNEPQKNRILEEIEKSKANHFLILFRDSSCQFRALYTLSGETEELSRLAGYGPRTVTPAMVEGIYKYNSDRKRFTQIPAKTMSMSVDAFTIQGHLWQSKKPTTPKKGGGTPK
B2: the binding result in test [3] is listed as “binds”.

B3: CAMSAP2 (protein, UniProt Q08AD1 1-1489)
chain: MGDAADPREMRKTFIVPAIKPFDHYDFSRAKIACNLAWLVAKAFGTENVPEELQEPFYTDQYDQEHIKPPVVNLLLSAELYCRAGSLILKSDAAKPLLGHDAVIQALAQKGLYVTDQEKLVTERDLHKKPIQMSAHLAMIDTLMMAYTVEMVSIEKVIACAQQYSAFFQATDLPYDIEDAVMYWINKVNEHLKDIMEQEQKLKEHHTVEAPGGQKSPSKWFWKLVPARYRKEQTLLKQLPCIPLVENLLKDGTDGCALAALIHFYCPDVVRLEDICLKETMSLADSLYNLQLIQEFCQEYLNQCCHFTLEDMLYAASSIKSNYLVFMAELFWWFEVVKPSFVQPRVVRPQGAEPVKDMPSIPVLNAAKRNVLDSSSDFPSSGEGATFTQSHHHLPSRYSRPQAHSSASGGIRRSSSMSYVDGFIGTWPKEKRSSVHGVSFDISFDKEDSVQRSTPNRGITRSISNEGLTLNNSHVSKHIRKNLSFKPINGEEEAESIEEELNIDSHSDLKSCVPLNTNELNSNENIHYKLPNGALQNRILLDEFGNQIETPSIEEALQIIHDTEKSPHTPQPDQIANGFFLHSQEMSILNSNIKLNQSSPDNVTDTKGALSPITDNTEVDTGIHVPSEDIPETMDEDSSLRDYTVSLDSDMDDASKFLQDYDIRTGNTREALSPCPSTVSTKSQPGSSASSSSGVKMTSFAEQKFRKLNHTDGKSSGSSSQKTTPEGSELNIPHVVAWAQIPEETGLPQGRDTTQLLASEMVHLRMKLEEKRRAIEAQKKKMEAAFTKQRQKMGRTAFLTVVKKKGDGISPLREEAAGAEDEKVYTDRAKEKESQKTDGQRSKSLADIKESMENPQAKWLKSPTTPIDPEKQWNLASPSEETLNEGEILEYTKSIEKLNSSLHFLQQEMQRLSLQQEMLMQMREQQSWVISPPQPSPQKQIRDFKPSKQAGLSSAIAPFSSDSPRPTHPSPQSSNRKSASFSVKSQRTPRPNELKITPLNRTLTPPRSVDSLPRLRRFSPSQVPIQTRSFVCFGDDGEPQLKESKPKEEVKKEELESKGTLEQRGHNPEEKEIKPFESTVSEVLSLPVTETVCLTPNEDQLNQPTEPPPKPVFPPTAPKNVNLIEVSLSDLKPPEKADVPVEKYDGESDKEQFDDDQKVCCGFFFKDDQKAENDMAMKRAALLEKRLRREKETQLRKQQLEAEMEHKKEETRRKTEEERQKKEDERARREFIRQEYMRRKQLKLMEDMDTVIKPRPQVVKQKKQRPKSIHRDHIESPKTPIKGPPVSSLSLASLNTGDNESVHSGKRTPRSESVEGFLSPSRCGSRNGEKDWENASTTSSVASGTEYTGPKLYKEPSAKSNKHIIQNALAHCCLAGKVNEGQKKKILEEMEKSDANNFLILFRDSGCQFRSLYTYCPETEEINKLTGIGPKSITKKMIEGLYKYNSDRKQFSHIPAKTLSASVDAITIHSHLWQTKRPVTPKKLLPTKA
For B3, in test [4], the binding result is recorded as “binds”.

Source of the values: article doi:10.1101/2024.05.31.596772.
